{"source": "PubChem BioAssay AID602346", "about": "(Broad Institute, 2012)", "note": "Among all 340,000 compounds or so, about 1,200 (0.35%) were called active. Inconclusive means that the source gave no clear call. Such entries were picked first, then a sample of the others. Rule as the data show it: active = inhibition above about 50% (passing the limit was not always enough); inconclusive = no clear call, values can overlap the other calls; inactive = below about 31%."}
{"test": "blockers of Vif multimerization in cells – imaging, HEK293T, single point, primary screen (AID 602346)", "details": "Vif self-association by quenched fluorescence, 24 h, at 7.49 µM, active compounds read high"}
{"smiles": "OCCNc1nc(N2CCN(c3ccccc3)CC2)nc2ccccc12", "inhibition": "inconclusive: 34.6%"}
{"smiles": "COc1cc(NC(=O)c2cc3ccccc3o2)ccc1NC(=O)c1ccco1", "inhibition": "inconclusive: 35.5%"}
{"smiles": "CCCCN(C(=O)c1cc2c(s1)CCCC2)c1c(N)n(CCC)c(=O)[nH]c1=O", "inhibition": "inconclusive: 29.1%"}
{"smiles": "C/C(=N\\Nc1ccc(S(N)(=O)=O)cc1[N+](=O)[O-])c1ccccc1O", "inhibition": "inconclusive: 33.7%"}
{"smiles": "COc1cc(C=C2CCCC(=Cc3ccc(OCC4CO4)c(OC)c3)C2=O)ccc1OCC1CO1", "note": "(configuration not stated)", "inhibition": "active: 61.9%"}
{"smiles": "CCCOc1ccc(/C=C/C(=O)Nc2ccc([N+](=O)[O-])cc2C)cc1OC", "inhibition": "inconclusive: 44.2%"}
{"smiles": "CCCCCCOC(=O)C[N+](C)(C)CCOC1CC2CCC1(C)C2(C)C", "note": "(configuration not stated)", "inhibition": "inactive: -1.16%"}
{"smiles": "COc1ccc(OCc2nn3c(-c4ccccn4)nnc3s2)cc1", "inhibition": "inconclusive: 38.4%"}
{"smiles": "CCOC(=O)c1c(NC(=O)CN(C)C)sc(C(=O)N(CC)CC)c1C", "inhibition": "inactive: -4.58%"}
{"smiles": "O=C(Nc1ccc(F)c(Cl)c1)c1cc(C2CCCN(S(=O)(=O)c3cccc4cccnc34)C2)on1", "note": "(configuration not stated)", "inhibition": "inconclusive: 49.9%"}
{"smiles": "Fc1cc(F)c2nc(N3CCCCC3)sc2c1", "inhibition": "inactive: 0.968%"}
{"smiles": "O=C(/C=C/c1cccc(Cl)c1)NCCc1ccccc1", "inhibition": "inactive: -3.74%"}
{"smiles": "CCc1ccccc1Nc1nc(N)nc(COC(=O)c2cccn2C)n1", "inhibition": "inactive: -14.5%"}
{"smiles": "COc1ccc(-c2csc(NC(=O)c3ccc(OCC(=O)N4CCOCC4)c(OC)c3)n2)cc1OC", "inhibition": "inactive: -22.3%"}
{"smiles": "Cn1c(CC(=O)NNC(=O)c2ccccc2F)nc2ccccc21", "inhibition": "inconclusive: 40.3%"}
{"smiles": "COc1ccc(NC(=S)NNc2ccc(S(=O)(=O)Nc3ccccc3C(=O)O)cc2[N+](=O)[O-])cc1", "inhibition": "inconclusive: 23.7%"}
{"smiles": "O=C(/C(=C/c1ccc(Cl)cc1)c1nc2ccccc2[nH]1)c1cccs1", "inhibition": "inactive: -9.08%"}
{"smiles": "COc1ccccc1NC(=O)c1ccccc1SCC(=O)N1CCCC1", "inhibition": "inconclusive: 23.8%"}
{"smiles": "CC(C)CNC(=S)NC1CCCC1", "inhibition": "active: 62.5%"}
{"smiles": "O=C1CCC(=O)N1c1ccc(NCc2ccccc2Cl)c([N+](=O)[O-])c1", "inhibition": "inconclusive: 28%"}
{"smiles": "Cc1cc2c(cc1C)N(CC(=O)N1CCCC1)C(=O)CC(c1ccccc1)=N2", "inhibition": "inactive: -3.42%"}
{"smiles": "Cc1csc2ncnc(NCCc3ccccn3)c12", "inhibition": "inactive: -0.494%"}
{"smiles": "FC(F)(F)c1nnc(-c2ccccc2)nc1Oc1ccc(Cl)cc1Cl", "inhibition": "active: 50.6%"}
{"smiles": "Cc1ccc(C)c(C(=O)COC(=O)c2ccc(C)c(S(=O)(=O)N3CCOCC3)c2)c1", "inhibition": "active: 58.9%"}
{"smiles": "Cn1c(-c2ccccn2)[n+](C)c2ccccc21", "inhibition": "inconclusive: 23.8%"}
{"smiles": "CCOC(=O)c1[nH]c2c(c1C)C(=O)CC(c1ccco1)C2", "note": "(configuration not stated)", "inhibition": "inconclusive: 26.1%"}
{"smiles": "CCOC(=O)N1CCC(NC(=O)CN2C(=O)CSc3nc(C)cc(C)c32)CC1", "inhibition": "inactive: 11.4%"}
{"smiles": "COc1ccc(Cl)cc1S(=O)(=O)Nc1ccc2c(c1)n(C)c(=O)n2C", "inhibition": "inactive: -3.13%"}
{"smiles": "O=C(NC1CCC(=O)N(CCSc2ccccc2)CC1)OCc1ccccc1", "note": "(configuration not stated)", "inhibition": "inconclusive: 21.1%"}
{"smiles": "CC1Cc2ccccc2N1C(=O)COC(=O)c1ccccc1NCCO", "note": "(configuration not stated)", "inhibition": "active: 65.8%"}
{"smiles": "Cc1ccc(NC(=O)N(C2=NCC(C)S2)c2ccccc2)cc1", "note": "(configuration not stated)", "inhibition": "inactive: 1.53%"}
{"smiles": "O=C(Nc1ccc(Cl)cc1)Nc1ccccc1CC[N+](=O)[O-]", "inhibition": "inactive: -12.3%"}
{"smiles": "O=C(COc1ccc2ccccc2c1)NNC(=O)Cc1ccccc1", "inhibition": "inactive: -0.196%"}
{"smiles": "CC(=O)OCc1ccccc1Sc1ccccc1C(=O)NCc1ccccc1", "inhibition": "inactive: -2.6%"}
{"smiles": "COC(C(=O)N/N=C(\\C)c1ccc(C(C)(C)C)cc1)c1ccccc1", "note": "(configuration not stated)", "inhibition": "inconclusive: 22.8%"}
{"smiles": "CC(C)(C)SC(=O)CC1NS(=O)(=O)OC2CCCCC12", "note": "(configuration not stated)", "inhibition": "inconclusive: 25.7%"}
{"smiles": "CCN1C(=O)/C(=C/c2ccc(N3CCCC3)cc2)NC1=S", "inhibition": "active: 61.3%"}
{"smiles": "Oc1cccc(Nc2nc(O)c(/C=C3\\C=Nc4ccccc43)s2)c1", "inhibition": "active: 56.8%"}
{"smiles": "Cc1onc(-c2ccccc2)c1C(=O)c1c[nH]c(C(=O)NCc2ccccn2)c1", "inhibition": "inactive: -10.5%"}
{"smiles": "Nc1ccccc1C(=O)N/N=C1\\C2CN3CCN(C2)CC1(c1ccccc1)C3", "inhibition": "inconclusive: 37.5%"}
{"smiles": "Cc1cc(-c2nc3ncccc3o2)ccc1NC(=O)c1ccc([N+](=O)[O-])o1", "inhibition": "inconclusive: 30%"}
{"smiles": "CC1(Cc2cc(Cl)ccc2C(F)(F)F)C(=O)Nc2ccc(S(=O)(=O)NC3CCCCC3)cc21", "note": "(configuration not stated)", "inhibition": "active: 70.1%"}
{"smiles": "OC(CNC1CCCCC1)CON=C1CCSc2c(Cl)cccc21", "note": "(configuration not stated)", "inhibition": "inactive: -0.645%"}
{"smiles": "COc1ccccc1NC(=O)c1ccc(NC(=O)c2nc3nccc(C)n3n2)cc1", "inhibition": "inconclusive: 46.9%"}
{"smiles": "O=C(c1cccc([N+](=O)[O-])c1)N1CCN(S(=O)(=O)N2CCCCC2)CC1", "inhibition": "inconclusive: 43.2%"}
{"smiles": "Cn1nnc2cc(C(=O)NCCC3=CCCCC3)ccc21", "inhibition": "inconclusive: 37%"}
{"smiles": "COC(=O)COc1ccc(/C=N/NC(=O)CN(c2ccccc2OC)S(=O)(=O)c2ccccc2)cc1", "inhibition": "active: 56.6%"}
{"smiles": "CN(/C(=N\\S(=O)(=O)c1ccccc1)C(F)(F)F)c1ccccc1", "inhibition": "active: 64.2%"}
{"smiles": "Cc1ccc(NC(=O)N2CCC(c3nc4c(nnn4Cc4c(F)cccc4Cl)c(=O)[nH]3)CC2)cc1", "inhibition": "inconclusive: 39.3%"}
{"smiles": "Cc1ccc(C(=O)NC(=S)NCCN2CCOCC2)cc1", "inhibition": "active: 50.2%"}
{"smiles": "CCOC(=O)CN1C(=O)S/C(=C/c2ccc3c(c2)n(C)c(=O)n3C)C1=O", "inhibition": "inactive: 3.4%"}
{"smiles": "NC(=O)c1ccc(NC(=O)c2cccc(Oc3ccccc3)c2)cc1", "inhibition": "inactive: -8.76%"}
{"smiles": "COc1cccc(C2C(C#N)=C(N)SC(c3ccccc3)C2[N+](=O)[O-])c1", "note": "(configuration not stated)", "inhibition": "inconclusive: 24.2%"}
{"smiles": "CCc1cccc(N(C(=O)c2csnn2)C(C(=O)NC2CCCCC2)c2ccncc2)c1", "note": "(configuration not stated)", "inhibition": "inconclusive: 29.6%"}
{"smiles": "CS(=O)(=O)N1CC2CCCN2c2ccc(C(F)(F)F)cc21", "note": "(configuration not stated)", "inhibition": "inactive: 1.89%"}
{"smiles": "CCCOc1ccc(C(=O)N/N=C/c2c[nH]c3ccc(Br)cc23)cc1", "inhibition": "inconclusive: 34.7%"}
{"smiles": "CCS(=O)(=O)NCCc1csc(C)n1", "inhibition": "inconclusive: 22.7%"}
